Construct, isoform or probe ends are uncertain for at least one entry.
System: PtNAC3 (Pinus tabuliformis)
Test: EMSA
Conditions: Beyotime EMSA luminous kit GS009; pH and temperature not stated; recombinant protein; protein details: GST; label: 5' biotin

Sequence: CATCCTCTATACGTAAAATTCTGGTTACCCACCAGGAAGTATCGCGTGTTT (double strand) [PtZFP30 promoter EMSA probe (ZFP30p)]
- binding result: binds

— paper PMC10407601
